Data: publication PMC314466
Results are given in words; binding and its absence hold for the method and conditions named. Binding seen in cells or lysates may run through a third protein. Some entries that bind do so weakly or less than the wild type.

Protein sequences, listed by entry. Tags and fused reporters are not part of them.
UniProt P03407: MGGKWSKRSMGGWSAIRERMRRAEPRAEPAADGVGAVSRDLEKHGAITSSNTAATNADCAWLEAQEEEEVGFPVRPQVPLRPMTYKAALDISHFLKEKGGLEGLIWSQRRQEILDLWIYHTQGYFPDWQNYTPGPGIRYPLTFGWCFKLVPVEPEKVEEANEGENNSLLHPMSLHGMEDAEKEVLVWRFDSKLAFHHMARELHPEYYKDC
UniProt Q92608: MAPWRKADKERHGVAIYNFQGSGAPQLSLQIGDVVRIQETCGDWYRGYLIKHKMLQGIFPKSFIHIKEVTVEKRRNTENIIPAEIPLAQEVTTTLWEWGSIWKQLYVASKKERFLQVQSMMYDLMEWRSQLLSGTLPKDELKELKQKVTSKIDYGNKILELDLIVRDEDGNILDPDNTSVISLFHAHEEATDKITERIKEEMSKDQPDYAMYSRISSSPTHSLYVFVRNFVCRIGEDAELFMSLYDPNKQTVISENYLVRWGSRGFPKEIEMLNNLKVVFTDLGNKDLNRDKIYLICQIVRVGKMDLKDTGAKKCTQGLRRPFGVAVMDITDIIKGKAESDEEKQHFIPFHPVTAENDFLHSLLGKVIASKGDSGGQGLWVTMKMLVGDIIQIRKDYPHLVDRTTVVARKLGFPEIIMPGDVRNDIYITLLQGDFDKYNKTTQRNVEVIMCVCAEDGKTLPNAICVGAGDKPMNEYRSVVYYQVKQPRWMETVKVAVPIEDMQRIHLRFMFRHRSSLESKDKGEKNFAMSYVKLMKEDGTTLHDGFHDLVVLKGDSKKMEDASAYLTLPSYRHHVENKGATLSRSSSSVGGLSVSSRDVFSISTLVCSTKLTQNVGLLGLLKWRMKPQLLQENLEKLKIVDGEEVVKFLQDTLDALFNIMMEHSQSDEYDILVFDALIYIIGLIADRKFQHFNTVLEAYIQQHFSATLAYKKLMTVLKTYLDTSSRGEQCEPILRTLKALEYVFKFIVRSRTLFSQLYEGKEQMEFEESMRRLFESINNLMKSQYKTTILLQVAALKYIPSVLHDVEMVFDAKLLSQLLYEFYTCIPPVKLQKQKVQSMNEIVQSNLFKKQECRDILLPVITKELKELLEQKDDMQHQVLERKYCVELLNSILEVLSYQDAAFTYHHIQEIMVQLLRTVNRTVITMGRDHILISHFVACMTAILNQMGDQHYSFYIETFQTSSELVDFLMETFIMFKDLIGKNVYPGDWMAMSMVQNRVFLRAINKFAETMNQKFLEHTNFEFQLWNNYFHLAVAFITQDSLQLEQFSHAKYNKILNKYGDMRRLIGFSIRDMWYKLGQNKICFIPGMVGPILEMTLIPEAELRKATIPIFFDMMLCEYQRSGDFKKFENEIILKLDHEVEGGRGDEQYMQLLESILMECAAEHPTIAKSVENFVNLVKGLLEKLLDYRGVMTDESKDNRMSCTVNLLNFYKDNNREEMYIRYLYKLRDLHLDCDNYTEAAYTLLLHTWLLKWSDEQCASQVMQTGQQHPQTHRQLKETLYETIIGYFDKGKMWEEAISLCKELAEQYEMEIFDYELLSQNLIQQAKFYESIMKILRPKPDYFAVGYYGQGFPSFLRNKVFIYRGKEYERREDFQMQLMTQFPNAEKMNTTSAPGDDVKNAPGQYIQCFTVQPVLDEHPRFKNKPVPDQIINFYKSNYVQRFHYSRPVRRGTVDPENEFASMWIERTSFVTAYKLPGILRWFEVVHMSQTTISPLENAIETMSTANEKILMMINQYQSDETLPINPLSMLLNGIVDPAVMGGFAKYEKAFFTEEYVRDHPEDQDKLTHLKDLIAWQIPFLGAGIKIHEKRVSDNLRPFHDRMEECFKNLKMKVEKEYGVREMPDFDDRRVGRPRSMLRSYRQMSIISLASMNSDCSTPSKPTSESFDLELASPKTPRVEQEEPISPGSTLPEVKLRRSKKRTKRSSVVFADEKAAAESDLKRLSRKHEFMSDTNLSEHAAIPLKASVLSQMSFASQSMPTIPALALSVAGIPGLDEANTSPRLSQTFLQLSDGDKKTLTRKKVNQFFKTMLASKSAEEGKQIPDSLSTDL
UniProt Q92556: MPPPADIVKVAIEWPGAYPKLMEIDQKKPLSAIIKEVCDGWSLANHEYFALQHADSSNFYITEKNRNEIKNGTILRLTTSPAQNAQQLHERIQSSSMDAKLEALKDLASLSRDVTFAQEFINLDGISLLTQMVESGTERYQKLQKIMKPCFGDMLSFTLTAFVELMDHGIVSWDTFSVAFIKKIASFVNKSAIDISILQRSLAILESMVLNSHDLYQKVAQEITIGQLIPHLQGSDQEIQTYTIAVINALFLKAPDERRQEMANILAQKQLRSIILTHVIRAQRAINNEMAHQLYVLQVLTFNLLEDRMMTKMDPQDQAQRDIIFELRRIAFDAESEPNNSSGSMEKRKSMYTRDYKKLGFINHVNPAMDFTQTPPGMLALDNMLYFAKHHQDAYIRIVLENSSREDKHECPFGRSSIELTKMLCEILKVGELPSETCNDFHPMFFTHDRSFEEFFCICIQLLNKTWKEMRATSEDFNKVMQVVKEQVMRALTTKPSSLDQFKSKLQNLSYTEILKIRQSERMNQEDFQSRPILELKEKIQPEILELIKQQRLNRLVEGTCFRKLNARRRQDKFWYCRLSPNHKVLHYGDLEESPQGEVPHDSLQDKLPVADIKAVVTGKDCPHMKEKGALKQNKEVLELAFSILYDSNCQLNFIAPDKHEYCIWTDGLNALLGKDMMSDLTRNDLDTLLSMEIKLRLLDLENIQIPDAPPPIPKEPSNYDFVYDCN

Assays:
[1] = target: hf-tagged Nef of HIV-1 strain SF2 (HIV-1 strain SF2) (UniProt P03407); test: co-IP; HEK 293 cells transiently coexpressing epitope-tagged DOCK2, ELMO1, Rac2 or Rac1 and hf-tagged Nef; extracts in LB buffer on anti-FLAG M2 affinity gel overnight, washed with LB and LB with 0.5 M LiCl, FLAG peptide elution; immunoblotting
His-tagged DOCK2 (human) = His-tagged DOCK2 (human) (UniProt Q92608); test: pull-down; HEK 293 cells transiently coexpressing His-DOCK2, Myc-ELMO1, Myc-Rac2, with or without NA7-hf; extracts in LB buffer on Ni–NTA agarose, eluted with 250 mM imidazole; immunoblotting

Substance	binding [1]	binding (His-tagged DOCK2 (human))
His-tagged DOCK2 (from UniProt Q92608 1-1830)	binds	–
Myc-tagged ELMO1 (from UniProt Q92556 1-727)	binds	binds
